Two molecules from PMC9470164, “Membrane-mediated dimerization potentiates PIP5K lipid kinase activity” (eLife, 2022) can be followed below.

Sequences of proteins named here, by UniProt entry; tags and fusion partners are left off. A change or cut given only in a name is not applied to a line headed by its entry.
UniProt P70182: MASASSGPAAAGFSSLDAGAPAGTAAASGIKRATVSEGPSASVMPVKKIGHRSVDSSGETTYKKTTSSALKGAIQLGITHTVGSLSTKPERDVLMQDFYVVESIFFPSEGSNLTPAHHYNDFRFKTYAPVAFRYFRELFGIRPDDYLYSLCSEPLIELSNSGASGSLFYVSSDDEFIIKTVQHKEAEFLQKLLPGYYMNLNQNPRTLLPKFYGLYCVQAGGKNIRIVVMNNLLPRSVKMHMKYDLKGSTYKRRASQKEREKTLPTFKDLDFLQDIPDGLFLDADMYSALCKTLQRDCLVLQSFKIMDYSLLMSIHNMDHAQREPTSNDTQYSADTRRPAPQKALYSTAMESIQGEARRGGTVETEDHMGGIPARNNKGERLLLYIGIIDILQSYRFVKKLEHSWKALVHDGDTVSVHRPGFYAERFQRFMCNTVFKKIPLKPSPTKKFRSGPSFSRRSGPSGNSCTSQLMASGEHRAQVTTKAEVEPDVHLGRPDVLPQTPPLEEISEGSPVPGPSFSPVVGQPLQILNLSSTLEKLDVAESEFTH

Results are given in words; binding and its absence hold for the method and conditions named. For some assays here: Sequences can lack the tags named with a protein.

Experiment [1] addresses mNG-mPIP5KA (D92R), in cell lysate (mouse) (UniProt P70182). Description: single-molecule TIRF molecular brightness on supported lipid bilayers; 100 pM mNG-tagged kinase in diluted cell lysate; particles with intensity ≥9200 A.U. counted as dimers; membrane 96% DOPC, 4% PI(4,5)P2.
Experiment [2] has as its target mNeonGreen-tagged yeast Mss4 (mNG-yMss4), in cell lysate (Saccharomyces cerevisiae (S288C)) (UniProt P38994). Description: single-molecule TIRF molecular brightness and photobleaching on supported lipid bilayers; mNG-tagged kinase in HEK293 cell lysate diluted ~10,000-fold to ~10 pM (legend: 1 pM mNG-PIP4KB, 5 pM mNG-PIP5K); low surface density ~0.03 molecules/µm^2; membrane 96% DOPC, 4% PI(4,5)P2; 23°C.

Take “mNG-mPIP5KA (D92R), in cell lysate (from UniProt P70182 1-546) (enzyme)”: in experiment [1], the binding entry is “no binding (tested: 100 pM)”.

B1: mNeonGreen-tagged yeast Mss4 (mNG-yMss4), in cell lysate (enzyme, UniProt P38994 1-779)
chain: MSVLRSQPPSVVPLHLTTSTSRKTEQEPSLLHSAIIERHQDRSVPNSNSNPDSNHRIKKDRNNHTSYHSSSNSESNMESPRLSDGESSTPTSIEELNPTINNSRLVKRNYSISIDPLHDNSNNNTDDDHPNTITSPRPNSTSNKEMQKYSFPEGKESKKITTPSLNSNNCLDLDNSSLVHTDSYIQDLNDDHILLNKRVSRRSSRISAVTATSTTIKQRRNTQDSNLPNIPFHASKHSQILPMDDSDVIKLANGDTSMKPNSATKISHSMTSLPLHPLPQPSQKSKQYHMISKSTTSLPPENDHYYQHSRGTNHNHAANAAAVNNNTTTTTAATGLKRSESATAEIKKMRQSLLHKREMKRKRKTFLVDDDRVLIGNKVSEGHVNFIIAYNMLTGIRVAVSRCSGIMKPLTPADFRFTKKLAFDYHGNELTPSSQYAFKFKDYCPEVFRELRALFGLDPADYLVSLTSKYILSELNSPGKSGSFFYYSRDYKYIIKTIHHSEHIHLRKHIQEYYNHVRDNPNTLICQFYGLHRVKMPISFQNKIKHRKIYFLVMNNLFPPHLDIHITYDLKGSTWGRFTNLDKERLAKDRSYRPVMKDLNWLEEGQKIKFGPLKKKTFLTQLKKDVELLAKLNTMDYSLLIGIHDINKAKEDDLQLADTASIEEQPQTQGPIRTGTGTVVRHFFREFEGGIRASDQFNNDVDLIYYVGIIDFLTNYSVMKKLETFWRSLRHDTKLVSAIPPRDYANRFYEFIEDSVDPLPQKKTQSSYRDDPNQKNYKD
B1: the binding entry in experiment [2] is given as “no binding”.
